# Source: publication PMC12177292
# Amino acid sequences for entries named in this document (tags omitted). A change or cut given only in a name is not applied to a line headed by its entry.
# UniProt F4JBZ1: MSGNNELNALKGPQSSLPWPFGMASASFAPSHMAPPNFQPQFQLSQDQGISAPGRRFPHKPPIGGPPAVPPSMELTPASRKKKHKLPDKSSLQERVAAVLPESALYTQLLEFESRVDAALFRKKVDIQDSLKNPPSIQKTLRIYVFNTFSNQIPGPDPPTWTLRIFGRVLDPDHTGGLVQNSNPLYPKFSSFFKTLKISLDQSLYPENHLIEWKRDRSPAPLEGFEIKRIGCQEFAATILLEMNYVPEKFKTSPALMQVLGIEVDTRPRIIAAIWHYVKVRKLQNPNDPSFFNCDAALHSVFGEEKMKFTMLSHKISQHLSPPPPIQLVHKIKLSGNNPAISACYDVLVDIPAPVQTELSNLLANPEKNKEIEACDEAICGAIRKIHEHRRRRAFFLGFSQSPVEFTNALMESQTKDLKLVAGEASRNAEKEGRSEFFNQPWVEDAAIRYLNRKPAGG
# UniProt Q9FMT4: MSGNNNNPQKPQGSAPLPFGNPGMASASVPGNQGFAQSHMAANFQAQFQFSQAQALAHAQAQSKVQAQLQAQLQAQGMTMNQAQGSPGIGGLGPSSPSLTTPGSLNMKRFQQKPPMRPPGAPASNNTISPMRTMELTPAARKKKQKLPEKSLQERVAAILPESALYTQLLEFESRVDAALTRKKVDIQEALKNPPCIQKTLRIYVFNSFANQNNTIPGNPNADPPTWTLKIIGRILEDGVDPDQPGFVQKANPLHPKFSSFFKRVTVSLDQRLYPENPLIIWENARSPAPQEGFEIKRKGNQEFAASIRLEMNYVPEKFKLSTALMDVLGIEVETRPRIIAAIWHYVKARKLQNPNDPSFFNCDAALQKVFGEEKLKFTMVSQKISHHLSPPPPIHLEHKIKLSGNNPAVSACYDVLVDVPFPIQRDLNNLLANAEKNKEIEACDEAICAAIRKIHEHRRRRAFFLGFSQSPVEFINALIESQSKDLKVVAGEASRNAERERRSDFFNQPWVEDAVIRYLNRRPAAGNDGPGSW
# UniProt Q6EVK6: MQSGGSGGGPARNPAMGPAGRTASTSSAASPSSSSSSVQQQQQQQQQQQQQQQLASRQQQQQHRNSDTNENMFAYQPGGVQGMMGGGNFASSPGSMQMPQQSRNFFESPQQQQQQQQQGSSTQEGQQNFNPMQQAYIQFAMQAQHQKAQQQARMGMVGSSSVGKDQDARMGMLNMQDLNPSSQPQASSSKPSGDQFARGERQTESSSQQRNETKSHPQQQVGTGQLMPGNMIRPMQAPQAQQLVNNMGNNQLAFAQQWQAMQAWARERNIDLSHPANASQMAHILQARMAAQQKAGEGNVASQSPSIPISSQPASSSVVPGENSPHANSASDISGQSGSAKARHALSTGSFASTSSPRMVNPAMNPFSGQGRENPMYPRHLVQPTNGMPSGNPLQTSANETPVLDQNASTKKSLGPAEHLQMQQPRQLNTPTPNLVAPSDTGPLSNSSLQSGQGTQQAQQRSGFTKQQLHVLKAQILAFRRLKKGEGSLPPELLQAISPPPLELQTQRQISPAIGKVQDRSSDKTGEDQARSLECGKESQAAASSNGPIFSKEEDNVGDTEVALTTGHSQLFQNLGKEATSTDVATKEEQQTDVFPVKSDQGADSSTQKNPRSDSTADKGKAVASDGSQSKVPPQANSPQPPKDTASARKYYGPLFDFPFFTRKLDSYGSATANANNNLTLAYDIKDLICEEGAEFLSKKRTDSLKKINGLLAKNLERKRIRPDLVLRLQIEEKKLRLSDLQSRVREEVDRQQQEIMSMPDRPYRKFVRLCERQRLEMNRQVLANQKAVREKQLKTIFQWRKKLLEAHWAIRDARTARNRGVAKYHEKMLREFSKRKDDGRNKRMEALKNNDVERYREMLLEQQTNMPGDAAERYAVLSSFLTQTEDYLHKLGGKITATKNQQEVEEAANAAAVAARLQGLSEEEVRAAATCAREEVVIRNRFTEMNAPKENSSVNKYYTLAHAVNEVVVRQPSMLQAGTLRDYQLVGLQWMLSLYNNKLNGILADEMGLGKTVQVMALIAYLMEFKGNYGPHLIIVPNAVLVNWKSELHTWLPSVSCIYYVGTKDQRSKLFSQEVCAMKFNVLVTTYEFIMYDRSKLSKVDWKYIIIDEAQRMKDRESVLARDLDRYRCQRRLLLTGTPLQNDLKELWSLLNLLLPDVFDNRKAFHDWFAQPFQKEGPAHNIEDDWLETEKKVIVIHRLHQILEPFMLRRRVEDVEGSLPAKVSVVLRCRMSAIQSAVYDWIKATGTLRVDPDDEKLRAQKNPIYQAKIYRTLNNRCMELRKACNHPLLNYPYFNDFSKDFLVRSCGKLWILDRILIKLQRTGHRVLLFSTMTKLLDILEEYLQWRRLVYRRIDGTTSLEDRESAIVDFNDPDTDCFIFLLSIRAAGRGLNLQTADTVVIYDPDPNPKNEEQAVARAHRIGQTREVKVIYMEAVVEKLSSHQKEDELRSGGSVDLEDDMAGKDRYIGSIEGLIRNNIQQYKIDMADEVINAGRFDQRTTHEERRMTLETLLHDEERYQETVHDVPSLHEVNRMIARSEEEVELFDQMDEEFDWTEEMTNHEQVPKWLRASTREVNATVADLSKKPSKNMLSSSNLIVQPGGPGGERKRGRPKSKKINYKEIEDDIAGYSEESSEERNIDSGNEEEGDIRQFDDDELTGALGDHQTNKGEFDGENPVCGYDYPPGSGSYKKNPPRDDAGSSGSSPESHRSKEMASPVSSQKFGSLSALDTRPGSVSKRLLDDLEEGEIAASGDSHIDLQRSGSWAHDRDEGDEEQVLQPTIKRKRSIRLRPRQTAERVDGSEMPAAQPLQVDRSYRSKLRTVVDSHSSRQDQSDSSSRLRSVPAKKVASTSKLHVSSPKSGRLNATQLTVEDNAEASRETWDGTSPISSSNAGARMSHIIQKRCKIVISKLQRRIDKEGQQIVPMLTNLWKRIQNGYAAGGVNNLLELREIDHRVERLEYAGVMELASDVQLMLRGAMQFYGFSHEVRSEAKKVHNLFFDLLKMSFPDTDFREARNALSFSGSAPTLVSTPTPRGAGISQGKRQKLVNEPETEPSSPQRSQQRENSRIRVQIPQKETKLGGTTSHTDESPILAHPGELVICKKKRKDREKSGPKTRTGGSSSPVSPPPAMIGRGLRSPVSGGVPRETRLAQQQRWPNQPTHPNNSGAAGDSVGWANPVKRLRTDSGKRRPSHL
# No constants are given. Whether binding was seen depends on the method and setting. In cells and extracts the contact can be indirect. Here binding means that the protein was enriched with, or labelled near, the bait; the list need not be complete.
# Tests used:
# Experiment in all cases: affinity purification with mass spectrometry; YFPHA-tagged bait captured on GFP-Trap magnetic beads from extracts of 20 g transgenic plants; IP buffer 50 mM Tris-HCl pH 7.6, 150 mM NaCl, 5 mM MgCl2, 10% glycerol, 0.25% TritonX-100, 1 mM DTT, with Viscolase; LC-MS/MS, label-free quantification
# [1] = target: SWP73A-YFPHA (Arabidopsis thaliana) (UniProt F4JBZ1)
# [2] = target: SWP73B-YFPHA (Arabidopsis thaliana) (UniProt Q9FMT4)
# [3] = target: T1, SWI3D-YFPHA (Arabidopsis thaliana) (UniProt Q8VY05)
# T1 sequence: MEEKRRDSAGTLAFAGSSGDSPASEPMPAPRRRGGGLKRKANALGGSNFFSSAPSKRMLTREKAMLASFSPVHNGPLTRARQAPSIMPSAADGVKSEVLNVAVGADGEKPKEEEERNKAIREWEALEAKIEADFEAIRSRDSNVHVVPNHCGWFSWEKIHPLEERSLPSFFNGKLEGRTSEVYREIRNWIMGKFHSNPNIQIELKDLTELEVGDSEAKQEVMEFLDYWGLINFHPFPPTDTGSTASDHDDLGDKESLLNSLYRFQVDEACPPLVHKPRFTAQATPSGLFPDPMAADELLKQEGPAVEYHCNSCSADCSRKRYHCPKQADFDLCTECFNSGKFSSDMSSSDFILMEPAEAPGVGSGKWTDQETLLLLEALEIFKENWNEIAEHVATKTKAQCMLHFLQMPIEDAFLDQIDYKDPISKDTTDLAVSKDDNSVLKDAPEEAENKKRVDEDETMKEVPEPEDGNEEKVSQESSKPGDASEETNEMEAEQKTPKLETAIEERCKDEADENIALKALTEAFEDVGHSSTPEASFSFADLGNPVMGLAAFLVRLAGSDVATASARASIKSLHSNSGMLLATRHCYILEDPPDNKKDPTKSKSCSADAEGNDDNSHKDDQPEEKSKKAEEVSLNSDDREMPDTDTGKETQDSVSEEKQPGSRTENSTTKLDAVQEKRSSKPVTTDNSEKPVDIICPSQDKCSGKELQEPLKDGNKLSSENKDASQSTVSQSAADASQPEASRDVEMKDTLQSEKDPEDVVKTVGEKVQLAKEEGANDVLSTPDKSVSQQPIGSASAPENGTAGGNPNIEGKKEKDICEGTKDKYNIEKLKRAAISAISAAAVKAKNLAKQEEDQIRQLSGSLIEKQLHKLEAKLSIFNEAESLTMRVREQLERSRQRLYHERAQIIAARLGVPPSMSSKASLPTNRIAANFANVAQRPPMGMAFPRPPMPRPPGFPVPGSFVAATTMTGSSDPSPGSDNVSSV
# [4] = target: T2, BSH-YFPHA (Arabidopsis thaliana) (UniProt P93045)
# T2 sequence: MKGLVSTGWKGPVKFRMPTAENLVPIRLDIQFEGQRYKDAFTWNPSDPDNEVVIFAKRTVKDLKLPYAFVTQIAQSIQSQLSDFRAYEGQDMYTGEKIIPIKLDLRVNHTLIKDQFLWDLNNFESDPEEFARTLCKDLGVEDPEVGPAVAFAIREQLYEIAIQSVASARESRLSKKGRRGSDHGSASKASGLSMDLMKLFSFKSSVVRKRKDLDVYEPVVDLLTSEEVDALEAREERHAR
binding [1],binding [2],binding [3],binding [4],Substance
binds,binds,–,–,BRM (from UniProt Q6EVK6 1-2193)
–,binds,binds,–,SYD (from UniProt F4IHS2 1-3574)
binds,–,binds,binds,SWP73B (endogenous) (from UniProt Q9FMT4)
